# Test results published in PubChem BioAssay AID652054 (National Center for Advancing Translational Sciences (NCATS), 2013).
# By UniProt entry, the sequences of proteins in these tests, tags left out.
# UniProt P35462, whole entry, looked up: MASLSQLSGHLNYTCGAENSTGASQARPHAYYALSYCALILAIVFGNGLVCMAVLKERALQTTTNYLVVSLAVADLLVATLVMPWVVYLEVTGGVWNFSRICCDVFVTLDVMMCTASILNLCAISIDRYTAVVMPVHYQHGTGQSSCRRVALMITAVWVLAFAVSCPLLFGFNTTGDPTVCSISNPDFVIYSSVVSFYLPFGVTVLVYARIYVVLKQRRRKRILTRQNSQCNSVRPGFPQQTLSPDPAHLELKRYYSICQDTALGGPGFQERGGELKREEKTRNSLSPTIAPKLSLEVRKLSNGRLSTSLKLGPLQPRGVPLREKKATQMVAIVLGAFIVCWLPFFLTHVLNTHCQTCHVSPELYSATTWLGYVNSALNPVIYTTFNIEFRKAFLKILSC
# Among all 360,000 compounds or so, about 9,100 (2.5%) were called active. The shares of active, inactive and inconclusive entries below differ from those in the screen. Rule as the data show it: active = max response below about -50%; inconclusive = no clear call, values can overlap the other calls; inactive = above that.
# Target: D(3) dopamine receptor (Homo sapiens) (UniProt P35462)
# Experiment: qHTS of D3 Dopamine Receptor Antagonist: qHTS
# Settings: D3R cells, DiscoveRx beta-arrestin luminescence, antagonist mode; hits give low values
# Description: D3 DARs represent a very important target for the treatment of several neuropsychiatric disorders. Indeed, one of the most promising therapeutic applications for the D3 DAR is in the area of addiction and related disorders. […] These findings have been observed with a number of addictive substances including cocaine, amphetamine, nicotine, and alcohol. […] Antagonism of the D3 DAR may also be therapeutic in the treatment of schizophrenia or psychosis. […] Since the D3 DAR is expressed in areas of the CNS associated with the control of mood and emotion, it has been hypothesized that selective antagonism of the D3 DAR may be effective in treating psychosis without inducing the motor side effects typically seen with D2 DAR antagonists.
# This part of the project aims to discover novel antagonist.
# NIH Chemical Genomics Center [NCGC]
# NIH Molecular Libraries Probe Centers Network [MLPCN]
# Assay Submitter (PI): David Sibley, NINDS
# Freshly passaged cells are plated in 1536 well white, solid bottom plates at a density of 1500 cells/well in 3microl of complete media. After an overnight incubation at 37 degrees C in 5% CO2, cells are loaded with 23nl of test compound from the compound library (as well as dopamine controls) using a 1536 pintool and incubated at 37 degrees C for 90 minutes. Two microliters of DiscoveRx reagent is then added to all cells, and they are incubated for an additional 30 - 60 minutes at room temperature. Following incubation, luminescence is measured on a ViewLux CCD-based luminometer reader using a 20 sec exposure time.
# % is scaled to controls: 0 for no effect and ±100 for the full control effect.
row,SMILES,"max response, negative = inhibition"
1,Cc1ccccc1/C=C/C(=O)c1ccc([N+](=O)[O-])o1,active: -58.1%
2,C#CC(=O)N(c1ccc(OC)cc1OC)C(C(=O)NC1CCCC1)c1cccs1 (configuration not stated),active: -50.7%
3,CCC(C)C1/C=C\CC(NC(=O)OCC2c3ccccc3-c3ccccc32)CC(=O)N1Cc1ccccc1 (configuration not stated),inconclusive: -34.1%
4,c1ccc(CN2CCC(Nc3nc(-c4cccnc4)nc4ccccc34)CC2)cc1,inconclusive: -45.7%
5,Cc1cccc(NC(=O)CN(C)S(=O)(=O)c2ccccc2)n1,inconclusive: -31%
6,CCN(Cc1ccncc1)Cc1ccc(Br)cc1,inconclusive: -32.3%
7,Cc1ccc2ccc(S(=O)(=O)n3nc(C)cc3C)cc2c1,active: -59.7%
8,CCc1cccc(CC)c1N(COC)C(=O)Cn1c(CO)nc2ccccc21,inconclusive: -33.2%
9,CCCNC(=O)Cn1c(=O)/c(=C/c2ccc(-c3ccc([N+](=O)[O-])cc3)o2)s/c1=C\C(=O)C(C)(C)C,inactive: 30.8%
10,CC(=O)Nc1ccc(NC(=O)CC2Nc3cccc4cccc(c34)NC2=O)cc1 (configuration not stated),inconclusive: -48.1%
11,Clc1ccccc1Nc1nc(NCc2ccccc2)nc2ccsc12,inactive: 12.8%
12,Cc1ccc(C)c(N2CCN(C(=S)Nc3ccc4nc(N5CCN(C)CC5)cc(C)c4c3)CC2)c1,inconclusive: -41.8%
13,O=c1c2ccccc2nc(SCc2cn3ccsc3n2)n1-c1ccccc1F,inconclusive: -35.2%
15,COCCNC(=O)C1CCCN(c2ncccn2)C1 (configuration not stated),inactive: 25.5%
16,CC(C)C/C=C1\CCc2c([nH]c3ccccc23)C1=O,inconclusive: -34.4%
17,COc1cc(CN(C)CC2CCCN(CCc3ccc(F)cc3)C2)c(Cl)cc1O (configuration not stated),inconclusive: -40.6%
18,O=[N+]([O-])c1cc([N+](=O)[O-])c(Oc2ccc(F)cc2)cc1NN1CCCCC1,inconclusive: -31.3%
19,Cc1nn2c(N3CCCC3)c3c(nc2c1-c1ccccc1)CCC3,inactive: 3.86%
20,COc1ccc(C2(NC(C)=O)CCN(Cc3cccnc3)CC2)cc1,inconclusive: -48.7%
21,Cc1nc(CNS(=O)(=O)c2ccc3ccccc3c2)cs1,inconclusive: -33.3%
22,Cc1ccc(-c2csc(NC(=O)c3ccc(S(=O)(=O)N4CCc5ccccc54)cc3)n2)cc1,inconclusive: -36.3%

row,SMILES,"max response, negative = inhibition"
1,O=S(=O)(Nc1ncccn1)c1ccc(NC(=S)N2CCN(c3cccc(C(F)(F)F)c3)CC2)cc1,inconclusive: -47.5%
2,C[C@@H](O)Cc1cn(CC(=O)NCCCCCCCCCCC(=O)N2CCNCC2)nn1,inconclusive: -37.3%
3,CCN(CC)S(=O)(=O)c1ccc(S(=O)(=O)N(Cc2ccccn2)Cc2ccco2)cc1,inactive: 14.6%
4,CCCS(=O)(=O)NC(=O)C1(C)CCN(C(=O)C2(c3ccc(Cl)cc3)CCCC2)C1 (configuration not stated),inconclusive: -42.5%
5,O=C(CSc1nncs1)N1c2ccccc2Sc2ccccc21,inactive: -6.34%
6,CC(=O)Nc1ccc(OCC(O)Cn2c3ccccc3c3ccccc32)c(C)c1 (configuration not stated),inactive: 26%
7,CC1=C(C(=O)N(C)C)CC(CC(=O)NC(c2ccccc2)c2ccccc2)C(=O)N1Cc1ccccc1 (configuration not stated),inactive: -4.05%
8,Cc1ccccc1NC(=O)Cn1nnc(S(=O)(=O)c2ccc(C(C)(C)C)cc2)c1N,inconclusive: -32.8%
9,CC1CCN(Cc2nnnn2-c2ccc(Cl)cc2)CC1,inconclusive: -30.5%
10,O=C(C1CCCN(Cc2ccccc2Br)C1)N1CCCCC1 (configuration not stated),active: -84.6%
11,COc1ccccc1NC(=O)N1CCN(c2ccc3nnc(-c4ccc(F)cc4)n3n2)CC1,inactive: 7.48%
12,CN1C(=C2C(=O)OC(C)(C)OC2=O)Sc2ccccc21,inconclusive: -46.6%
13,O=[N+]([O-])c1ccc(/C=C/c2ccncc2)cc1,inactive: -5.35%
14,O=C(CNc1cccc2ccccc12)N/N=C/c1ccc(C(=O)O)cc1,inconclusive: -41.4%
15,COC(=O)Oc1c(Br)c(=O)oc2ccccc12,active: -82.2%
16,CSc1nc(-c2ccccc2)nc(N2CCN(C)CC2)c1C(C)=O,active: -55.1%
17,Cc1cc(C(=O)N2CCC(C(F)(F)F)n3nccc32)on1 (configuration not stated),inconclusive: -46.5%
18,CN1CCN(C(=O)CCCN2C(=O)/C(=C/c3ccc(Cl)cc3)SC2=S)CC1,inactive: 0.185%
19,CN(C)c1ccc(CNC(=O)C2(C)Cc3c(-c4cccc(C(F)(F)F)c4)ccnc3O2)cc1 (configuration not stated),active: -84.1%
20,O=C(CC(Cc1ccccc1)C(=O)O)Nc1ccc(Cl)c(Cl)c1 (configuration not stated),inactive: -20.3%
21,COc1ccc(-n2c(SCC(=O)Nc3nccs3)nc3sc4c(c3c2=O)CCN(C)C4)cc1,inconclusive: -40.6%
22,O=C(NC1CC1)c1ccccc1NC(=O)c1ccccc1OC(F)F,inconclusive: -31.1%

row,SMILES,"max response, negative = inhibition"
1,C/C(CC(=O)Nc1ccc2c(c1)OCCO2)=N\NC(=O)C(=O)Nc1ccccc1C,inactive: -4.3%
2,O=C(NCC(c1ccco1)N1CCN(c2ccc(F)cc2)CC1)OCc1ccccc1 (configuration not stated),inconclusive: -39.3%
3,Clc1ccccc1Nc1nc2ccccc2o1,inconclusive: -39.7%
4,O=C(NCCCN1CCc2ccccc2C1)C1CCN(S(=O)(=O)N2CCC3(CC2)OCCO3)CC1,active: -64.8%
5,CCCn1nnc(NC(=S)NC(=O)c2cccs2)n1,inconclusive: -34.5%
6,O=C1C=CC2C(c3ccc4c(c3)OCO4)CC1N2Cc1ccccc1 (configuration not stated),inactive: 2.68%
7,O=C(c1ccc(C(F)(F)F)cc1)N1CCN(c2ccc(N3CCOCC3)nn2)CC1,inactive: -23.7%
8,O=C(O/N=C\c1ccc(N2CCCCC2)c([N+](=O)[O-])c1)c1cccc(C(F)(F)F)c1,inconclusive: -37.7%
9,COc1ccc(NC(=O)c2cnn3c(C(F)(F)F)cc(-c4ccco4)nc23)cc1OC,inconclusive: -37.1%
10,COC(=O)[C@H](CC(C)C)NC(=O)NC1CCCc2ccccc21 (some centres not stated),inconclusive: -46.1%
11,CC(C(=O)NC1CCCC1)n1c(-c2ccccn2)nc2ccccc21 (configuration not stated),inactive: -27.4%
12,COc1ccc(Br)cc1-c1noc(-c2ccccc2F)n1,inactive: -17.4%
13,Nc1nc(N(Cc2ccccc2)Cc2ccccc2)nc(C(F)(F)F)n1,inconclusive: -49.2%
14,CCN1CCN(C(=S)c2ccc(-c3ccccc3)cc2)CC1,inconclusive: -32.6%
15,CC(C)Cc1ccc(/C=C/C(=O)N2CCOCC2)cc1,inactive: -4.53%
16,COc1ccc(C(=O)COC(=O)/C=C/c2ccccc2[N+](=O)[O-])cc1,inconclusive: -37.5%
17,Cc1csc(NC(=O)c2cc([N+](=O)[O-])cc([N+](=O)[O-])c2)n1,inconclusive: -34.2%
18,CCCCOC(=O)c1ccc(NC(=O)CSC2=Nc3ccccc3C3CC=NN23)cc1 (configuration not stated),inconclusive: -32.4%
19,CCN1CCN(C2CCCCC2NS(=O)(=O)c2ccc(Cl)cc2)CC1 (configuration not stated),inconclusive: -32.7%
20,Cc1cccnc1C(NC(=O)C1CCN(Cc2ccc(Cl)c(Cl)c2)CC1)c1ccc(Cl)cc1 (configuration not stated),inconclusive: -44.7%
21,N#C/C(=C\c1cc2c(cc1Br)OCO2)c1ccc(C(=O)O)cc1,inactive: -4.48%
22,O=C(Nc1ccc(O)c2c(=O)cc(-c3ccccc3Cl)oc12)c1ccccc1Cl,inactive: -4.1%

row,SMILES,"max response, negative = inhibition"
1,Cc1cccc(Cn2ccc(NC(=O)c3ccc4c(c3)OCO4)n2)c1,inactive: 0.323%
2,Cc1ccc(S(=O)(=O)N2CC(O)CC2C(=O)OCC(=O)Nc2ccc([N+](=O)[O-])cc2C(F)(F)F)cc1C (configuration not stated),inconclusive: -35%
3,CCOc1ccc2nc(NS(=O)(=O)c3ccc(NC(C)=O)cc3)sc2c1,active: -57.2%
4,Cc1ccc(OCC(=O)N(C)CC(=O)Nc2cccc(F)c2)cc1,inconclusive: -31.1%
5,Cc1ccc(C(=O)N/N=C2\CCSC2)cc1[N+](=O)[O-],inconclusive: -32.2%
6,CN1CCN(S(=O)(=O)c2cccc(C(=O)N(Cc3nnc(-c4ccccc4Cl)o3)C3CC3)c2)CC1,inactive: 3.62%
7,CC(C)(C)c1ccc(OCCCNC2CCCC2)cc1,inconclusive: -31.3%
8,O=C1/C(=C\c2ccco2)SC(=S)N1Cc1ccccc1,inconclusive: -37.3%
9,CC(=O)c1sc(N/N=C/c2cccc([N+](=O)[O-])c2)nc1C,inconclusive: -33.6%
10,O=C(CNCc1ccccc1)NC1C2CC3CC(C2)CC1C3 (configuration not stated),inconclusive: -37%
11,Nc1ncn(C(=S)Nc2ccccc2)n1,inconclusive: -33.3%
12,CCN(CC(=O)Nc1ccc(C(C)=O)cc1)CC(=O)Nc1ccc2c(c1)OCCO2,inconclusive: -44.3%
13,CCCCNC(=O)CCCCCn1c(=O)[nH]c2cc(OC)c(OC)cc2c1=O,inactive: -18.3%
14,CC1(C)SC(=S)N(/N=C/c2ccccc2)C1N(O)C(=O)Nc1ccc([N+](=O)[O-])cc1 (configuration not stated),active: -56.1%
15,CC(C)OC(=O)c1ccc(NC(=O)C2C3CC4OC(=O)C2C4C3)cc1 (configuration not stated),inactive: 6.27%
16,Cc1nn(-c2ccccc2)c2c1C1(C(=O)N(C(C)C)c3ccccc31)C(C#N)=C(N)O2 (configuration not stated),inactive: 21.2%
17,CC(=O)C1=C(C)NC(SCC(N)=O)=C(C#N)C1c1cccs1 (configuration not stated),inconclusive: -35.8%
18,COc1ccc2c(c1)OC[C@H]1[C@H]2N2C(=O)c3ccc(C)cc3NC(=O)[C@@]2(C)[C@H]1c1ccccc1,inconclusive: -42.2%
19,C/C(=C\c1ccccc1)CN1CCN(c2cccc(Cl)c2)CC1,active: -137%
20,Nc1[nH]c(=O)nc2snnc12,inactive: 7%
21,CC(Oc1ccc(Br)cc1)C(=O)Nc1ccncc1 (configuration not stated),inactive: 14.2%

# Some of the entries so far, with tabs.
row	SMILES	max response, negative = inhibition
7	CC1=C(C(=O)N(C)C)CC(CC(=O)NC(c2ccccc2)c2ccccc2)C(=O)N1Cc1ccccc1 (configuration not stated)	inactive: -4.05%
8	Cc1ccccc1NC(=O)Cn1nnc(S(=O)(=O)c2ccc(C(C)(C)C)cc2)c1N	inconclusive: -32.8%
9	CC1CCN(Cc2nnnn2-c2ccc(Cl)cc2)CC1	inconclusive: -30.5%
10	O=C(C1CCCN(Cc2ccccc2Br)C1)N1CCCCC1 (configuration not stated)	active: -84.6%
11	COc1ccccc1NC(=O)N1CCN(c2ccc3nnc(-c4ccc(F)cc4)n3n2)CC1	inactive: 7.48%
12	CN1C(=C2C(=O)OC(C)(C)OC2=O)Sc2ccccc21	inconclusive: -46.6%
13	O=[N+]([O-])c1ccc(/C=C/c2ccncc2)cc1	inactive: -5.35%
14	O=C(CNc1cccc2ccccc12)N/N=C/c1ccc(C(=O)O)cc1	inconclusive: -41.4%
15	COC(=O)Oc1c(Br)c(=O)oc2ccccc12	active: -82.2%
16	CSc1nc(-c2ccccc2)nc(N2CCN(C)CC2)c1C(C)=O	active: -55.1%
17	Cc1cc(C(=O)N2CCC(C(F)(F)F)n3nccc32)on1 (configuration not stated)	inconclusive: -46.5%
18	CN1CCN(C(=O)CCCN2C(=O)/C(=C/c3ccc(Cl)cc3)SC2=S)CC1	inactive: 0.185%
19	CN(C)c1ccc(CNC(=O)C2(C)Cc3c(-c4cccc(C(F)(F)F)c4)ccnc3O2)cc1 (configuration not stated)	active: -84.1%
20	O=C(CC(Cc1ccccc1)C(=O)O)Nc1ccc(Cl)c(Cl)c1 (configuration not stated)	inactive: -20.3%
21	COc1ccc(-n2c(SCC(=O)Nc3nccs3)nc3sc4c(c3c2=O)CCN(C)C4)cc1	inconclusive: -40.6%
22	O=C(NC1CC1)c1ccccc1NC(=O)c1ccccc1OC(F)F	inconclusive: -31.1%
1	C/C(CC(=O)Nc1ccc2c(c1)OCCO2)=N\NC(=O)C(=O)Nc1ccccc1C	inactive: -4.3%
2	O=C(NCC(c1ccco1)N1CCN(c2ccc(F)cc2)CC1)OCc1ccccc1 (configuration not stated)	inconclusive: -39.3%
3	Clc1ccccc1Nc1nc2ccccc2o1	inconclusive: -39.7%
4	O=C(NCCCN1CCc2ccccc2C1)C1CCN(S(=O)(=O)N2CCC3(CC2)OCCO3)CC1	active: -64.8%
5	CCCn1nnc(NC(=S)NC(=O)c2cccs2)n1	inconclusive: -34.5%
6	O=C1C=CC2C(c3ccc4c(c3)OCO4)CC1N2Cc1ccccc1 (configuration not stated)	inactive: 2.68%
